Experimental data published in PMC13343842, “The accessory protein CvnF8 modulates histidine kinase activity in an actinobacterial G protein system in Streptomyces coelicolor” (mBio, 2026).
Results are given in words; binding and its absence hold for the method and conditions named. In cells and extracts the contact can be indirect. Binding calls can cover weak binding; strength is not graded here. Tags and fused reporters may be left off the sequences shown.

The chains behind the UniProt entries cited, without tags or fusion partners. Where a name states a change or a piece, a line headed by the entry shows the natural chain unless it says otherwise.
UniProt Q9KYK2: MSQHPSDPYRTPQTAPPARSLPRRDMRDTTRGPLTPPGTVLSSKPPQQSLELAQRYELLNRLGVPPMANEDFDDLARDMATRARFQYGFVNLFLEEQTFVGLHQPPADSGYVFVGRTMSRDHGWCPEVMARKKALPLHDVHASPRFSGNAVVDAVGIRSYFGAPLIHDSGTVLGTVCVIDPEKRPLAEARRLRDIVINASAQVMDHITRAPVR

T1: truncated His6-tagged CvnA8 (residues 81-505) (Streptomyces coelicolor) (UniProt Q9KYJ8)
T1 sequence: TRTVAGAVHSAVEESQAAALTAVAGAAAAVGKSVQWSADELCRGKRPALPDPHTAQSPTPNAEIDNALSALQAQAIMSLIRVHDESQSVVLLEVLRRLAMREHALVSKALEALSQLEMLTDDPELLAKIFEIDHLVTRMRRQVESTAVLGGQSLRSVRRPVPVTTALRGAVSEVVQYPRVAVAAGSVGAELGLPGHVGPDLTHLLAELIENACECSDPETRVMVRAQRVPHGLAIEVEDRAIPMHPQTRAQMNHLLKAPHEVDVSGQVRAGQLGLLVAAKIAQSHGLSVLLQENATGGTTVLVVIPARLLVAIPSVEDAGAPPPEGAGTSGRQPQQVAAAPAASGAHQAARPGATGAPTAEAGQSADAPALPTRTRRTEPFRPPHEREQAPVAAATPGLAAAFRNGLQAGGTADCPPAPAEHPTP

B1: truncated His6-tagged CvnA8 (residues 81-505) (domain or fragment, UniProt Q9KYJ8 81-505)
chain: T1 sequence

Legend:
[1] = molecular target: T1, truncated His6-tagged CvnA8 (residues 81-505) (Streptomyces coelicolor); assay: pull-down; lysate of E. coli co-expressing both proteins incubated with Ni-NTA resin 1 h at 4°C (His6-CvnA8 81-505 as bait); 50 mM Tris-HCl pH 8.0, 300 mM NaCl, 5 mM MgCl2; washes with 50 mM imidazole, elution with 300 mM imidazole; anti-His and anti-Strep western blots; n = 3
[2] = molecular target: full-length Strep-tagged CvnF8 (Streptomyces coelicolor) (UniProt Q9KYK2); assay: pull-down; lysate of E. coli co-expressing both proteins incubated with Strep-Tactin Sepharose beads 1 h at 4°C (Strep-CvnF8 as bait); 50 mM Tris-HCl pH 8.0, 300 mM NaCl, 5 mM MgCl2; elution with 50 mM D-desthiobiotin; anti-His and anti-Strep western blots; n = 3

Row | binding [1] | binding [2] | Molecule
1 | binds | – | full-length Strep-tagged CvnF8 (from UniProt Q9KYK2)
2 | – | binds | B1
